Reference: patent US20120157452A1, “1H-PYRAZOLO[3,4-B] PYRIDINE COMPOUNDS FOR INHIBITING RAF KINASE” (GENENTECH, INC., priority 2009, published 2012)
Some results were stated once for a whole list of compounds, not compound by compound.

By UniProt entry, the sequences of proteins in these tests, tags left out.
UniProt P15056, whole entry V600E: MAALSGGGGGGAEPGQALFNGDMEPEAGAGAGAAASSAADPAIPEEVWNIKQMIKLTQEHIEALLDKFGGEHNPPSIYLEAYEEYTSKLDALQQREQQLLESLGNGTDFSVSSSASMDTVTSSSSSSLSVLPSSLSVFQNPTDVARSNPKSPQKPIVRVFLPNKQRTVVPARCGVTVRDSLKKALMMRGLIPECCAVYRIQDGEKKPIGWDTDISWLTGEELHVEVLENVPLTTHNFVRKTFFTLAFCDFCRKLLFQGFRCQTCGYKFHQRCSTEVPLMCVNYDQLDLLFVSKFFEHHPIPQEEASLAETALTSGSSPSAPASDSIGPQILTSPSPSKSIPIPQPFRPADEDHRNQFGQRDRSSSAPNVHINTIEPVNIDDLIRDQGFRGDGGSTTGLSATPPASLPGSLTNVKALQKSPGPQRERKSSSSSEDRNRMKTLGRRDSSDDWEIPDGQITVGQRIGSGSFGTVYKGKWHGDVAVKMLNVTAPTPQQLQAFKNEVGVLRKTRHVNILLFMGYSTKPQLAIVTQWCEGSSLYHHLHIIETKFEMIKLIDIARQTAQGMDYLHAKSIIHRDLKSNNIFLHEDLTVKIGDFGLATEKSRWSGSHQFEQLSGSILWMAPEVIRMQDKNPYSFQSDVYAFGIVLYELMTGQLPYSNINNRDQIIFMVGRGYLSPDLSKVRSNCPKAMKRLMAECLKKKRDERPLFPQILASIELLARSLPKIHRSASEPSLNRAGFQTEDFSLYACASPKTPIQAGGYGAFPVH

What follows are molecules tested against T1, V600E full-length B-Raf (Homo sapiens, UniProt P15056, V600E) (assay: B-Raf IC50 assay: incorporation of radio labeled phosphate from [γ-33P]ATP into FSBA-modified wild-type MEK). Conditions: bound stated.
T1 construct: made in house; host or cells: Sf9 insect cells (baculovirus)
Type: biochemical
Source text: Determining the activity of Raf in the sample is possible by a number of direct and indirect detection methods (US 2004/0082014). Activity of human recombinant B-Raf protein may be assessed in vitro by assay of the incorporation of radio labeled phosphate to recombinant MAP kinase (MEK), a known physiologic substrate of B-Raf, according to US 2004/0127496 and WO 03/022840. The activity/inhibition of V600E full-length B-Raf was estimated by measuring the incorporation of radio labeled phosphate from [γ-^33]ATP into FSBA-modified wild-type MEK (see Biological Example 1).
Activity of human recombinant B-Raf protein may be assessed in vitro by assay of the incorporation of radio labeled phosphate to recombinant MAP kinase (MEK), a known physiologic substrate of B-Raf, according to US 2004/0127496 and WO 03/022840. Catalytically active human recombinant B-Raf protein is obtained by purification from sf9 insect cells infected with a human B-Raf recombinant baculovirus expression vector.
The activity/inhibition of V600E full-length B-Raf was estimated by measuring the incorporation of radio labeled phosphate from [γ-^33]ATP into FSBA-modified wild-type MEK. The 30-μL, assay mixtures contained 25 mM Na Pipes, pH 7.2, 100 mM KCl, 10 mM MgCl2, 5 mM β-glycerophosphate, 100 μM Na Vanadate, 4 μM ATP, 500 nCi [γ-^33P]ATP, 1 μM FSBA-MEK and 20 nM V600E full-length B-Raf. Incubations were carried out at 22° C. in a Costar 3365 plate (Corning). Prior to the assay, the B-Raf and FSBA-MEK were preincubated together in assay buffer at 1.5× (20 μL of 30 nM and 1.5 μM, respectively) for 15 minutes, and the assay was initiated by the addition of 10 μL of […]. Following the 60-minute incubation, the assay mixtures were quenched by the addition of 100 μL of 25% TCA, the plate was mixed on a rotary shaker for 1 minute, and the product was captured on a Perkin-Elmer GF/B filter plate using a Tomtec Mach III Harvester. After sealing the bottom of the plate, 35 μL of Bio-Safe II (Research Products International) scintillation cocktail were added to each well and the plate was top-sealed and counted in a Topcount NXT (Packard).

SMILES	IC50
COc1n[nH]c2ncc(NC(=O)c3c(Cl)ccc(OCc4ccccc4F)c3F)cc12 [Example 3, 6-chloro-2-fluoro-3-(2-fluorobenzyloxy)-N-(3-methoxy-1H-pyrazolo[3,4-b]pyridin-5-yl)benzamide]	< 1000 nM
COc1n[nH]c2ncc(NC(=O)c3c(Cl)ccc(OCc4ccc(I)cc4)c3F)cc12 [Example 47, 6-chloro-2-fluoro-3-(4-iodobenzyloxy)-N-(3-methoxy-1H-pyrazolo[3,4-b]pyridin-5-yl)benzamide]	< 1000 nM
COc1n[nH]c2ncc(NC(=O)c3c(Cl)ccc(OCc4ccc(C)cc4)c3F)cc12 [Example 31, 6-chloro-2-fluoro-N-(3-methoxy-1H-pyrazolo[3,4-b]pyridin-5-yl)-3-(4-methyl-benzyloxy)benzamide]	< 1000 nM
COc1n[nH]c2ncc(NC(=O)c3c(Cl)ccc(OCc4cccc(Cl)c4)c3F)cc12 [Example 50, 6-chloro-3-(3-chlorobenzyloxy)-2-fluoro-N-(3-methoxy-1H-pyrazolo[3,4-b]pyridin-5-yl)benzamide]	< 1000 nM
CSc1n[nH]c2ncc(NC(=O)c3c(Cl)ccc(OCc4ccccc4)c3F)cc12 [Example 12, 3-(benzyloxy)-6-chloro-2-fluoro-N-(3-(methylthio)-1H-pyrazolo[3,4-b]pyridin-5-yl)benzamide]	< 1000 nM
COc1n[nH]c2ncc(NC(=O)c3c(Cl)ccc(OCc4ccc(C(F)(F)F)nc4)c3F)cc12 [Example 43, 6-chloro-2-fluoro-N-(3-methoxy-1H-pyrazolo[3,4-b]pyridin-5-yl)-3-((6-(trifluoromethyl)pyridin-3-yl)methoxy)benzamide]	< 1000 nM
CN(C)CCOc1n[nH]c2ncc(NC(=O)c3c(Cl)ccc(OCc4ccccc4)c3F)cc12 [Example 17, 3-(benzyloxy)-6-chloro-N-(3-(2-(dimethylamino)ethoxy)-1H-pyrazolo[3,4-b]pyridin-5-yl)-2-fluorobenzamide]	< 1000 nM
CCc1n[nH]c2ncc(NC(=O)c3c(Cl)ccc(OCc4ccccc4)c3F)cc12 [Example 6, 3-(benzyloxy)-6-chloro-N-(3-ethyl-1H-pyrazolo[3,4-b]pyridin-5-yl)-2-fluorobenzamide]	< 1000 nM
COc1n[nH]c2ncc(NC(=O)c3cccc(OCc4ccccc4)c3Cl)cc12 [Example 21, 3-(benzyloxy)-2-chloro-N-(3-methoxy-1H-pyrazolo[3,4-b]pyridin-5-yl)benzamide]	< 1000 nM
COc1n[nH]c2ncc(NC(=O)c3c(C)ccc(OCc4ccc(F)cc4)c3F)cc12 [Example 71, 2-fluoro-3-(4-fluorobenzyloxy)-N-(3-methoxy-1H-pyrazolo[3,4-b]pyridin-5-yl)-6-methylbenzamide]	< 1000 nM
CNc1n[nH]c2ncc(NC(=O)c3c(Cl)ccc(OCc4ccccc4)c3F)cc12 [Example 11, 3-benzyloxy-6-chloro-2-fluoro-N-(3-(methylamino)-1H-pyrazolo[3,4-b]pyridin-5-yl)benzamide]	< 1000 nM
COc1n[nH]c2ncc(NC(=O)c3c(Cl)ccc(OCc4ccc(Br)cc4)c3F)cc12 [Example 48, 3-(4-bromobenzyloxy)-6-chloro-2-fluoro-N-(3-methoxy-1H-pyrazolo[3,4-b]pyridin-5-yl)benzamide]	< 1000 nM
COc1n[nH]c2ncc(NC(=O)c3cc(OCc4ccccc4)ccc3F)cc12 [Example 2, 5-(benzyloxy)-2-fluoro-N-(3-methoxy-1H-pyrazolo[3,4-b]pyridin-5-yl)benzamide]	< 1000 nM
CCOc1n[nH]c2ncc(NC(=O)c3c(Cl)ccc(OCc4ccccc4)c3F)cc12 [Example 14, 3-(benzyloxy)-6-chloro-N-(3-ethoxy-1H-pyrazolo[3,4-b]pyridin-5-yl)-2-fluorobenzamide]	< 1000 nM
COc1n[nH]c2ncc(NC(=O)c3c(Cl)ccc(OCc4cccnc4)c3F)cc12 [Example 36, 6-chloro-2-fluoro-N-(3-methoxy-1H-pyrazolo[3,4-b]pyridin-5-yl)-3-(pyridin-3-ylmethoxy)benzamide]	< 1000 nM
COc1n[nH]c2ncc(NC(=O)c3c(Cl)ccc(OCc4cnccn4)c3F)cc12 [Example 57, 6-chloro-2-fluoro-N-(3-methoxy-1H-pyrazolo[3,4-b]pyridin-5-yl)-3-(pyrazin-2-ylmethoxy)benzamide]	< 1000 nM

SMILES	IC50
O=C(Nc1cnc2[nH]nc(C3CC3)c2c1)c1c(Cl)ccc(OCc2ccccc2)c1F [Example 35, 3-(benzyloxy)-6-chloro-N-(3-cyclopropyl-1H-pyrazolo[3,4-b]pyridin-5-yl)-2-fluorobenzamide]	< 1000 nM
COc1n[nH]c2ncc(NC(=O)c3c(Cl)ccc(OCc4ccco4)c3F)cc12 [Example 54, 6-chloro-2-fluoro-3-(furan-2-ylmethoxy)-N-(3-methoxy-1H-pyrazolo[3,4-b]pyridin-5-yl)benzamide]	< 1000 nM
COc1n[nH]c2ncc(NC(=O)c3c(Cl)ccc(OCc4ncccn4)c3F)cc12 [Example 41, 6-chloro-2-fluoro-N-(3-methoxy-1H-pyrazolo[3,4-b]pyridin-5-yl)-3-(pyrimidin-2-ylmethoxy)benzamide]	< 1000 nM
COc1n[nH]c2ncc(NC(=O)c3c(Cl)ccc(OCc4ccncc4)c3F)cc12 [Example 39, 6-chloro-2-fluoro-N-(3-methoxy-1H-pyrazolo[3,4-b]pyridin-5-yl)-3-(pyridin-4-ylmethoxy)benzamide]	< 1000 nM
COc1n[nH]c2ncc(NC(=O)c3c(Cl)ccc(OCc4ccncn4)c3F)cc12 [Example 40, 6-chloro-2-fluoro-N-(3-methoxy-1H-pyrazolo[3,4-b]pyridin-5-yl)-3-(pyrimidin-4-ylmethoxy)benzamide]	< 1000 nM
O=C(Nc1cnc2[nH]nc(C(F)(F)F)c2c1)c1c(Cl)ccc(OCc2ccccc2)c1F [Example 8, 3-(benzyloxy)-6-chloro-2-fluoro-N-(3-(trifluoromethyl)-1H-pyrazolo[3,4-b]pyridin-5-yl)benzamide]	< 1000 nM
COc1n[nH]c2ncc(NC(=O)c3c(Cl)ccc(OCc4cccc(F)c4)c3F)cc12 [Example 28, 6-chloro-2-fluoro-3-(3-fluorobenzyloxy)-N-(3-methoxy-1H-pyrazolo[3,4-b]pyridin-5-yl)benzamide]	< 1000 nM
COc1n[nH]c2ncc(NC(=O)c3c(Cl)ccc(OCc4cccc(C)n4)c3F)cc12 [Example 38, 6-chloro-2-fluoro-N-(3-methoxy-1H-pyrazolo[3,4-b]pyridin-5-yl)-3-((6-methylpyridin-2-yl)methoxy)benzamide]	< 1000 nM
COc1n[nH]c2ncc(NC(=O)c3c(Cl)ccc(OCc4ccc(C(F)(F)F)cn4)c3F)cc12 [Example 42, 6-chloro-2-fluoro-N-(3-methoxy-1H-pyrazolo[3,4-b]pyridin-5-yl)-3-((5-(trifluoromethyl)pyridin-2-yl)methoxy)benzamide]	< 1000 nM
O=C(Nc1cnc2[nH]nc(OCCO)c2c1)c1c(Cl)ccc(OCc2ccccc2)c1F [Example 15, 3-(benzyloxy)-6-chloro-2-fluoro-N-(3-(2-hydroxyethoxy)-1H-pyrazolo[3,4-b]pyridine-5-yl)benzamide]	< 1000 nM
CC(C)Oc1n[nH]c2ncc(NC(=O)c3c(Cl)ccc(OCc4ccccc4)c3F)cc12 [Example 16, 3-(benzyloxy)-6-chloro-2-fluoro-N-(3-isopropoxy-1H-pyrazolo[3,4-b]pyridin-5-yl)benzamide]	< 1000 nM
Cc1n[nH]c2ncc(NC(=O)c3c(Cl)ccc(OCc4ccccc4)c3F)cc12 [Example 34, 3-(benzyloxy)-6-chloro-2-fluoro-N-(3-methyl-1H-pyrazolo[3,4-b]pyridin-5-yl)benzamide]	< 1000 nM
COc1n[nH]c2ncc(NC(=O)c3c(C)ccc(OCc4ccc(Cl)cc4)c3F)cc12 [Example 72, 3-(4-chlorobenzyloxy)-2-fluoro-N-(3-methoxy-1H-pyrazolo[3,4-b]pyridin-5-yl)-6-methylbenzamide]	< 1000 nM
O=C(Nc1cnc2[nH]nc(-c3ccco3)c2c1)c1c(Cl)ccc(OCc2ccccc2)c1F [Example 9, 3-(benzyloxy)-6-chloro-2-fluoro-N-(3-(furan-2-yl)-1H-pyrazolo[3,4-b]pyridin-5-yl)benzamide]	< 1000 nM
COc1n[nH]c2ncc(NC(=O)c3cc(OCc4ccccc4)ccc3C)cc12 [Example 27, 5-(benzyloxy)-N-(3-methoxy-1H-pyrazolo[3,4-b]pyridin-5-yl)-2-methylbenzamide]	< 1000 nM
COc1n[nH]c2ncc(NC(=O)c3c(Cl)ccc(OCc4cnn(C)c4)c3F)cc12 [Example 70, 6-chloro-2-fluoro-N-(3-methoxy-1H-pyrazolo[3,4-b]pyridin-5-yl)-3-((1-methyl-1H-pyrazol-4-yl)methoxy)benzamide]	< 1000 nM
